The results in this text go back to US4190647A (Sloan-Kettering Institute for Cancer Research, priority 1979, dated 1980).

This series is described as follows: Boc solid-phase peptide synthesis; chloromethylated polystyrene divinyl benzene resin; dicyclohexyl carbodiimide; α-BOC-L-glutamine-O-nitrophenyl ester coupled directl. The settings on record: whole synthesis, scale 2 mmol.

Some peptides are written in HELM: one residue between dots, names in brackets for other building blocks, links after the first $.

Consider PEPTIDE1{Y.N.I.Q.K}$$$$V2.0, for which the “final purity (method not given)” value is given as 94%.
